Source: PubChem BioAssay AID686943 (Drosophila RNAi Screening Center, 2013)
Aim: 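Fly genes whose loss alters ERK activation after insulin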 (primary screen). System: Drosophila S2R+ haemocyte-like cells expressing YFP-tagged ERK (Rolled). Reagents: long dsRNA against Drosophila genes. Challenge: insulin stimulation versus unstimulated cells; dose and duration not given. Measured: 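Per-plate z-scores of phospho-ERK immunostaining normalised to YFP-tagged ERK, measured with and without insulin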. Reading the numbers: replicate 1, z-score of dpERK with insulin and replicate 2, z-score of dpERK with insulin: higher = more active ERK per ERK-YFP after insulin.
The deposit covers about 23,000 reagents; shown is a random part of those with a known target gene and a result. 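Extra replicates exist only for a retested subset of genes; insulin dose and duration not given; both raised and lowered dpERK matter.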 Reagents against one gene are numbered here. A plus sign joins genes that one reagent is predicted to hit. Not all columns of the deposit are shown. Not given: the amount of reagent, the time to read-out.

no.	gene	dsRNA no.	replicate 1, z-score of dpERK with insulin	replicate 2, z-score of dpERK with insulin
1	CG31948	1	-1.18	0.01
2	CG42813	1	-0.02	0.3
3	cv-2	1	1.51	0.06
4	cv-2	2	0.13	0.75
5	CG33282	1	0.78	-0.38
6	CG31415	1	1.36	0.29
7	gd	1	0.08	0.17
8	CG13694	1	-0.42	0.02
9	CG3085	1	0.24	-0.1
10	vkg	1	0.61	1.52
11	cav	1	0.32	-0.29
12	CG7829	1	-0.55	-0.94
13	ihog	1	-0.69	-0.38
14	opa	1	0.56	0.28
15	opa	2	-0.86	0.02
16	CR43361	1	-0.3	0.26
17	tipE	1	-0.52	0.59
18	CG15891 + CG15892	1	0.67	-0.26
19	CG15891 + CG15892	2	0.08	1.01
20	Dtwd2 + Obp84a	1	-0.19	0.31
21	polo	1	-0.31	1.8
22	polo	2	0.66	1.03
23	CG8738	1	0.15	0.72

Targets above whose target name starts with P or p (2):
gene	dsRNA no.	replicate 1, z-score of dpERK with insulin	replicate 2, z-score of dpERK with insulin
polo	1	-0.31	1.8
polo	2	0.66	1.03
